Numbering of substitutions follows the chain as printed. Numbers in names are those of the source. These are yes or no findings as the source states them, for the method shown. Some entries that bind do so weakly or less than the wild type. Values belong to the binder of their own block, whether it stands above or below them.
Assays:
[1] = biological target: T1, MEX-5 (Muscle-EXcess protein 5), wild type (C. elegans) (UniProt Q9XUB2); assay: two-hybrid; yeast two-hybrid; Gal4-DBD fused to MEX-5 or MEX-5(T186A), Gal4-AD fused to MEX-6 or MEX-6(T190A); selective and nonselective medium; empty Gal4-AD vector as negative control
T1 sequence: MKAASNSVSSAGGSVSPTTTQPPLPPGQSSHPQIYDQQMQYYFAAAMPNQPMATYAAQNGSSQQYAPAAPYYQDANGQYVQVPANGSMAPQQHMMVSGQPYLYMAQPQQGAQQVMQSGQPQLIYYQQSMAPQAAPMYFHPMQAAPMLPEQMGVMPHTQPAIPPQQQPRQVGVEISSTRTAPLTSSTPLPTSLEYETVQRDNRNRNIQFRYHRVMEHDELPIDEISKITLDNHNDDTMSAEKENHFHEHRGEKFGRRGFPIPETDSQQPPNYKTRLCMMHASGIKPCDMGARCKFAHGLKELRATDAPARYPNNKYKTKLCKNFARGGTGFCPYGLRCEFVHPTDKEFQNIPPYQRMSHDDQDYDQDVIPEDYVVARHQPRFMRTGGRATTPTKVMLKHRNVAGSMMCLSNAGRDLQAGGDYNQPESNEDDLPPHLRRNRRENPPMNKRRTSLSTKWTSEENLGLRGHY

[2] = biological target: T2, MEX-5(T186A) (C. elegans) (UniProt Q9XUB2); assay: as above
T2 sequence: T1 sequence with T186A

binding [1]: binds | binding [2]: binds
B1: MEX-6 (Muscle-EXcess protein 6), wild type (protein, UniProt Q09436 1-467)
chain: MTATSNSAPLAGGSLSSSATAQPPQPPPGHQQQHPLPQIYDSQMQYYYGSSMPNQPIPTYTAQNGAPQQFGTPPYYQDANGQFGQVPAQQQMMTAGHPYFYMAQPQQGGQHVAQSGQPQIFYYQQPLGQMAQQAAPMYFHPMQAASTPMLSEQMSMMPQIQSTNPQQSEQLRKSGAQISTTRTVPLTSSTPLPTSREYETVQRDRNRNSQSRYQCPIEHDDLPIDEISKITIDNHNDDTMSAEKENRFNKNRVEKLGRRGFAKPEVDSQLPHNFKTRLCMTHAAGINPCALGARCKFAHGLKELRASDIPTRYPNNKYKTKLCKNFARGGSGVCPYGLRCEFVHPSDTEFQNIPPYQRKMVEEHDSIPEDYVVARYQPRFMHTSGKATTPTKVTLKQRNVAGSMMCLSNTGRDLEAGGDFNHPEINENDLPPHLRRIRRGNPPVTRSRPSFSTKWTSVENLGLRGHY

binding [1]: binds | binding [2]: no binding
B2: MEX-6(T190A) (protein, UniProt Q09436 1-467)
chain: B1 chain with T190A

Source: paper PMC11670235
